# Results from PubChem BioAssay AID2551 (National Center for Advancing Translational Sciences (NCATS), 2010).
# The chains behind the UniProt entries cited, without tags or fusion partners. Where a name states a change or a piece, a line headed by the entry shows the natural chain unless it says otherwise.
# UniProt P51450: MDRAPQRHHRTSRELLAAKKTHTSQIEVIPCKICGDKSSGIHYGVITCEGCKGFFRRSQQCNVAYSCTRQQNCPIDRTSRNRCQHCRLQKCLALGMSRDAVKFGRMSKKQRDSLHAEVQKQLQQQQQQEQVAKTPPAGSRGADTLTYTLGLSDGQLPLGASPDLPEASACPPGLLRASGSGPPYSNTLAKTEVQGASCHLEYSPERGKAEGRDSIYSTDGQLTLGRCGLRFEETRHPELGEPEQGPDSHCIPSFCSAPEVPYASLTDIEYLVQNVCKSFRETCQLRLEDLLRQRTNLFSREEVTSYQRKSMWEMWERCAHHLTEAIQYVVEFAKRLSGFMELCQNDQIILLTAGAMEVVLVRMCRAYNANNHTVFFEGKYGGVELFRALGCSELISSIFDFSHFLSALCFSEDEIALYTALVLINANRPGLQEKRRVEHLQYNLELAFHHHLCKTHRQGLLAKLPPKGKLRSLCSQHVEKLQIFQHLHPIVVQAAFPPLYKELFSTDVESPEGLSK
# About 17,000 (5.5%) of roughly 310,000 compounds were called active. The shares of active, inactive and inconclusive entries below differ from those in the screen. Calls follow the shape of the dose curve; as a rule, active = well fitted inhibition curve with a large enough effect; inconclusive = small, poorly fitted or top-dose-only effect, or effect the other way; inactive = no such curve, though single readings can be large or run the other way. Potencies of inconclusive entries are doubtful fits and often do not repeat.
# Biological target: Nuclear receptor ROR-gamma (Mus musculus) (UniProt P51450)
# Assay: qHTS for inhibitors of ROR gamma transcriptional activity; also: nearly all actives have a fitted effect of over 60% in size
# Details: Drosophila S2 Gal4-RORgamma UAS-luciferase reporter, 20 h; series mostly up to 53.6 µM
# Summary of the method: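 Luciferase reporter read in Schneider cells carrying Gal4-RORγ (mouse) and UAS-Photinus luciferase; cells given compound 1 h before 700 uM copper sulfate induction, then incubated 20 h at ambient temperature.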
# Potency is read from the fitted curve at half-maximal effect.
row,Structure (SMILES),Potency
1,O=C(O)c1ccc2c3c1cccc3c(=O)n1c3ccccc3nc21,"inconclusive: 14.1 µM [inhibitor, single point]"
2,C=Cn1cc[n+](CC(=O)c2cc(C(C)(C)C)c(O)c(C(C)(C)C)c2)c1,"inconclusive: 14.1 µM [activator, single point]"
3,CC(C)(C)n1ncc2c(=O)n(CC(=O)NC3CCCCC3)cnc21,"inconclusive: 35.5 µM [inhibitor, single point]"
4,Cc1cccc(Nc2nc(-c3ccc(F)cc3)cs2)n1,"inconclusive: 11.2 µM [inhibitor, single point]"
5,Cc1cccc(CS(=O)(=O)Cc2ccc(C(=O)NCc3ccco3)o2)c1,"inconclusive: 5.01 µM [activator, partial curve]"
6,CCn1ccnc1CNC(=O)c1ccc2oc(C(C)C)nc2c1,inactive
7,O=C(CN1C(=O)NC2(CCCc3ccccc32)C1=O)Nc1cccc(S(=O)(=O)N2CCCCC2)c1 (stereo not drawn),"inconclusive: 10 µM [activator, partial curve]"
8,C=CCn1c(SCc2cc(=O)n3cc(C)ccc3n2)nnc1-c1ccc(F)cc1,"inconclusive: 17.8 µM [activator, partial curve]"
9,Cc1ccc(N2CC(C(=O)Nc3cccnc3)CC2=O)cc1Cl (stereo not drawn),inactive
10,CCc1ccc(-c2nc(CS(=O)CC(=O)NCc3ccccc3)c(C)o2)cc1 (stereo not drawn),"inconclusive: 7.94 µM [inhibitor, partial curve, poor fit]"
11,O=C(Nc1nccs1)c1ncc(Cl)c(Cl)c1Cl,active: 7.94 µM
12,COc1ccc(N2CCN(C(=O)c3ccc(Oc4ccc(C(F)(F)F)cn4)cc3)CC2)cc1,"inconclusive: 35.5 µM [activator, single point]"
13,Cn1c(Oc2ccccc2NCc2cc(Br)ccc2O)cc(=O)n(C)c1=O,"inconclusive: 22.4 µM [activator, single point]"
14,CC1(C)CC2CC(C)(CN2S(=O)(=O)c2ccc(C(=O)Nc3cccc(S(=O)(=O)N4CCOCC4)c3)cc2)C1 (stereo not drawn),"inconclusive: 4.47 µM [inhibitor, partial curve]"
15,Cc1ccc(CS(=O)(=O)c2ncc(Cl)c(C(=O)Nc3nnc(C)s3)n2)cc1,active: 14.1 µM
16,O=C(CSc1nccn1-c1ccccc1)NCc1ccc(F)cc1,inactive
17,C=CCNC(=S)Nc1ccc(Cl)cc1,active: 15.8 µM
18,CCNC(=O)NC(=O)COC(=O)c1ccccc1SCC(=O)NC(=O)NCC,inactive
19,COC(=O)c1ccc(NC(=O)COC(=O)c2cccc3c(=O)c(C)c(-c4ccccc4)oc23)cc1,"inconclusive: 3.16 µM [activator, full curve]"
20,CCCN1CCN(C(=O)c2oc3ccccc3c2NC(=O)COc2ccc(OC)cc2)CC1,inactive
21,CCN1CCN(C(=O)c2ccc3c(=O)n(Cc4ccccc4OC)c(=S)[nH]c3c2)CC1,"inconclusive: 20 µM [inhibitor, single point]"
22,C=CC1=C(C(=O)O)N2C(=O)[C@@H](NC(=O)C(N=O)c3csc(N)n3)[C@H]2SC1 (stereo partly drawn),"inconclusive: 10 µM [inhibitor, partial curve]"

row,Structure (SMILES),Potency
1,Nc1ccccc1Sc1ccccc1[N+](=O)[O-],"inconclusive: 12.6 µM [activator, single point]"
2,O=C(/C=C/c1ccc(F)cc1)NC(=S)Nc1ccccc1O,"inconclusive: 22.4 µM [inhibitor, partial curve, poor fit]"
3,COc1cccc(CNc2ncnc3ccc(-c4c(C)noc4C)cc23)c1,"inconclusive: 12.6 µM [inhibitor, partial curve, poor fit]"
4,C=CCNC(=S)Nc1ccc(OC(F)F)c(Cl)c1,"inconclusive: 15.8 µM [inhibitor, partial curve, poor fit]"
5,CC1(C)C2CCC(C2)C1(C)NC(=O)CNCc1cccs1 (stereo not drawn),inactive
6,O=C(Cc1ccccc1)NCCc1ccc(Cl)cc1Cl,inactive
7,O=C(CCn1c(=O)sc2ccccc21)Nc1nc2ccccc2s1,"inconclusive: 35.5 µM [activator, single point]"
8,CCc1cc(SC#N)ccc1N,"inconclusive: 22.4 µM [inhibitor, single point]"
9,O=C(NC1=NCCS1)c1cccc(OC(F)F)c1,active: 11.2 µM
10,COC(=O)c1cc(=O)n(Cc2ccco2)c(=Nc2ccc(F)cc2)s1,"inconclusive: 35.5 µM [inhibitor, single point]"
11,c1ccc(CSc2ccc(-c3ccc4c(c3)OCO4)nn2)cc1,"inconclusive: 3.16 µM [activator, partial curve, poor fit]"
12,O=C(Nc1ccc(OCC(=O)N2CCOCC2)cc1)c1cc(F)c(F)cc1Cl,"inconclusive: 0.251 µM [inhibitor, full curve, poor fit]"
13,C=CCOc1ccc(CNc2ccc(NC(=O)CC(C)C)cc2)cc1OC,"inconclusive: 17.8 µM [activator, partial curve, poor fit]"
14,COc1ccccc1OCc1nc(-c2cccc([N+](=O)[O-])c2)no1,inactive
15,Cc1onc(-c2ccccc2)c1C(=O)N(Cc1ccco1)Cc1cccs1,"inconclusive: 14.1 µM [inhibitor, single point]"
16,NNC(=O)c1cnn(-c2ccccc2)c1C(F)(F)F,"inconclusive: 35.5 µM [inhibitor, single point]"
17,O=C(CNc1cccc(C(F)(F)F)c1)N/N=C/c1cccc(Br)c1,"inconclusive: 35.5 µM [inhibitor, single point]"
18,COc1ccc(N(CC(=O)NCc2ccco2)S(=O)(=O)c2ccccc2)cc1,"inconclusive: 28.2 µM [inhibitor, single point]"
19,COc1cc(NC(=O)Cn2cnc3sc(C)c(S(=O)(=O)N4CCOCC4)c3c2=O)cc(OC)c1OC,"inconclusive: 14.1 µM [inhibitor, partial curve, poor fit]"
20,Cc1ccc(Cl)cc1NC1=NC(=S)N(C(C)C)C12CCCCC2,active: 2.82 µM
21,CC(C)Cn1c2c(c(=O)[nH]c1=O)C(C(F)(F)F)(C(F)(F)F)N=C(CCC1CCCCC1)N2,"inconclusive: 14.1 µM [inhibitor, single point]"

# Not a retest: nine of the compounds above.
row,Structure (SMILES),Potency
21,CCN1CCN(C(=O)c2ccc3c(=O)n(Cc4ccccc4OC)c(=S)[nH]c3c2)CC1,"inconclusive: 20 µM [inhibitor, single point]"
22,C=CC1=C(C(=O)O)N2C(=O)[C@@H](NC(=O)C(N=O)c3csc(N)n3)[C@H]2SC1 (stereo partly drawn),"inconclusive: 10 µM [inhibitor, partial curve]"
1,Nc1ccccc1Sc1ccccc1[N+](=O)[O-],"inconclusive: 12.6 µM [activator, single point]"
2,O=C(/C=C/c1ccc(F)cc1)NC(=S)Nc1ccccc1O,"inconclusive: 22.4 µM [inhibitor, partial curve, poor fit]"
3,COc1cccc(CNc2ncnc3ccc(-c4c(C)noc4C)cc23)c1,"inconclusive: 12.6 µM [inhibitor, partial curve, poor fit]"
4,C=CCNC(=S)Nc1ccc(OC(F)F)c(Cl)c1,"inconclusive: 15.8 µM [inhibitor, partial curve, poor fit]"
5,CC1(C)C2CCC(C2)C1(C)NC(=O)CNCc1cccs1 (stereo not drawn),inactive
6,O=C(Cc1ccccc1)NCCc1ccc(Cl)cc1Cl,inactive
7,O=C(CCn1c(=O)sc2ccccc21)Nc1nc2ccccc2s1,"inconclusive: 35.5 µM [activator, single point]"
